Laboratory results: patent US10168338B2, “Methods of identifying modulators of sestrin-gator-2 interaction for modulating mTORC1 activity” (Whitehead Institute for Biomedical Research, priority 2014, dated 2019)
At least one compound was matched to its structure with a doubt left.

Biological target: T1, GATOR2-Sestrin2 interaction (Homo sapiens, UniProt P58004)
T1 construct: To isolate the FLAG-WDR24/endogenous-Sestrin2 complex; endogenous in cells; host or cells: HEK-293T cells stably expressing FLAG-WDR24; Sestrin2 and the other GATOR2 subunits are endogenous
T1 sequence (P58004 1-480): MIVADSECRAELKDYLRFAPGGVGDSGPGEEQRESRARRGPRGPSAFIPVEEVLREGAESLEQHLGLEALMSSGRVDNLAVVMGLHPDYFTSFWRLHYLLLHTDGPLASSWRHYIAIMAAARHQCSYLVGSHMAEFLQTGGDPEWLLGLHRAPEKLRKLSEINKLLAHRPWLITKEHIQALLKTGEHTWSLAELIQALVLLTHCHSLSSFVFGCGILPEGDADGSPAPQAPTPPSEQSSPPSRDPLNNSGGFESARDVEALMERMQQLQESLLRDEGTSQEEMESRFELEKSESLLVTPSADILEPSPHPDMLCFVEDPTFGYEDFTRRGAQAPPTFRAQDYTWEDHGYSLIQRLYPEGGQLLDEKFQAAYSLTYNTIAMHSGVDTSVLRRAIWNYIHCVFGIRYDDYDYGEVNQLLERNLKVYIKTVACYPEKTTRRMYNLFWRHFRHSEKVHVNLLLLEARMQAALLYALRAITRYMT
Experiment: Sestrin2-GATOR2 interaction in HEK-293T cells after starvation/restimulation (co-immunoprecipitation)
Type: cell-based
Conditions: 250 nM throughout starvation and restimulation
Procedure: In order to determine the effect of amino acids on the GATOR2-Sestrin interaction, transfected cells were incubated in amino acid free RPMI for 50 minutes and then stimulated with amino acids for 10 minutes. For glucose starvation, cells were incubated in RPMI media lacking glucose but containing amino acids and dialyzed serum for 50 minutes, followed by a 10 minute restimulation with 5 mM D-Glucose. For insulin deprivation, cells were incubated in RPMI without serum for 50 minutes and restimulated with 1 μg/ml insulin for 10 minutes. Finally, when Torin1 or Rapamycin was used, cells were incubated with 250 nM of each throughout the starvation and restimulation period.
HEK-293T cells stably expressing FLAG-WDR24 or the control protein FLAG-metap2 (as described in Example 1) were starved for leucine, arginine, or all amino acids for 50 minutes. In some samples, cells were re-stimulated with leucine, arginine, or all amino acids for 10 minutes and then FLAG immunoprecipitates prepared from cell lysates. Immunoprecipitates and lysates were analyzed by immunoblotting for indicated proteins. Removal of either leucine or arginine from the cell media inhibited mTORC1 signaling, as indicated by S6K1 phosphorylation, to similar extents. […]

SMILES: CO[C@H]1C[C@@H]2CC[C@@H](C)[C@@](O)(O2)C(=O)C(=O)N2CCCC[C@H]2C(=O)O[C@H]([C@H](C)C[C@@H]2CC[C@@H](O)[C@H](OC)C2)CC(=O)[C@H](C)/C=C(\C)[C@@H](O)[C@@H](OC)C(=O)[C@H](C)C[C@H](C)/C=C/C=C/C=C/1C [rapamycin]
- effect of pretreatment on the amino acid-induced decrease in the GATOR2-Sestrin2 interaction: did not prevent the amino acid-induced decrease in the GATOR2-Sestrin2 interaction
